From PubChem BioAssay AID493014 (National Center for Advancing Translational Sciences (NCATS), 2011)
Some of the results follow. These are further read-outs of the screen, such as a control signal, another cell line or another target. No call is given for them. The list favours compounds with an active or inconclusive main result. Words in brackets tell the shape of the fitted curve; partial curves, single points and poor fits give uncertain potencies.

Assay: qHTS Assay to Find Inhibitors of Chronic Active B-Cell Receptor Signaling
Details: ABC-DLBCL IkBa-CBG/CBR reporter, luminescence ratio (green luciferase fused to IkBa over red control in TMD8 lymphoma cells), 4 h
Summary of the method: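 Doxycycline induced both beetle luciferases in TMD8 lymphoma cells; IKK-driven degradation limits the IkappaBalpha-fused green signal, while red luminescence normalises for cell number and nonspecific effects. Compounds tested up to 46 uM, 4 hrs.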

[1] = measured here: CBR red luminescence, cell number
[2] = measured here: IkBa-CBG green luminescence

Structure (SMILES) | AC50 [1] | AC50 [2]
O=C(c1ccccc1)[C@@H]1[C@@H](C(=O)c2ccc(F)cc2)[C@@]2(C(=O)Nc3ccccc32)[C@H]2c3ccccc3C=CN12 | 14.6 µM [falling, partial curve] | 18.4 µM [rising, partial curve, poor fit]
O=C(Nc1ccc(C(=O)NCc2ccccc2)cc1)C1=CSCCO1 | 12.6 µM [rising, partial curve, poor fit] | –
CCNCC(=O)N1c2ccccc2CCc2ccc(NC(C)=O)cc21 | 25.9 µM [rising, single point] | –
COC(=O)CC(N)c1ccc(OC)c2ccccc12 (configuration not stated) | 16.4 µM [falling, single point] | –
COc1ccc(CNC(=O)COC(=O)CCC(=O)c2cccs2)cc1 | 6.31 µM [rising, single point] | –
Cc1cccc(CN2CCN(C(c3ccccc3)c3ccc(Cl)cc3)CC2)c1 (configuration not stated) | 31.6 µM [rising, single point] | –
CC1CCN(C(=O)COC(=O)c2cc3ccccc3oc2=O)CC1 | 6.51 µM [rising, single point] | –
O=C(CCCN1C(=O)C2CC=CCC2C1=O)Nc1cccc(F)c1 (configuration not stated) | 6.31 µM [rising, single point] | –
COc1ccc(C2=Nn3c(nnc3-c3ccccn3)SC2)cc1 | 11.2 µM [falling, partial curve, poor fit] | –
O=C(Cc1ccc(-n2c(=O)c3ccccc3n(Cc3ccccc3Cl)c2=O)cc1)NCC1CCCO1 (configuration not stated) | – | 2 µM [falling, full curve]
Cc1c(C)n(C)c2ccc(C(=O)NCCc3ccco3)cc12 | 2.82 µM [falling, full curve] | –
CC(=O)c1sc(NC(=O)C2CC(=O)N(Cc3ccccc3)C2)nc1-c1ccccc1 (configuration not stated) | 7.31 µM [falling, partial curve] | –
COc1ccc(COC(=O)N/N=C(\C)CC(=O)Nc2ccc(Cl)cc2)cc1 | 14.6 µM [falling, partial curve, poor fit] | –
O=C(Nc1ccc(S(=O)(=O)Nc2ncccn2)cc1)c1ccco1 | 20.6 µM [falling, single point] | 20.6 µM [rising, partial curve, poor fit]
Cc1c(NC(=S)Nc2cccc(Cl)c2)c(=O)n(-c2ccccc2)n1C | 6.31 µM [rising, single point] | –
CS(=O)(=O)N1CCc2cc(C(=O)Nc3ccc(Br)cc3)ccc21 | 2 µM [rising, full curve, poor fit] | –
O=C(O)c1cccc(N/N=C/c2cccc3ccccc23)c1 | 7.94 µM [falling, partial curve] | –
CC(=C/C(=O)O)/C=C/c1ccco1 | 18.4 µM [falling, partial curve] | –
O=S(=O)(NC1CCCCC1)c1ccc(N2CCOCC2)nc1 | 11.2 µM [rising, partial curve, poor fit] | –
O=C(NNc1c2ccccc2nc2ccccc12)c1cccc(O)c1 | 23.1 µM [falling, partial curve, poor fit] | –
CC1=CC(C)(C)N2C(=O)C3(C(C#N)=C(N)OC4=C3C(=O)CC(C)(C)C4)c3c(C)c(C)cc1c32 (configuration not stated) | 3.26 µM [rising, full curve, poor fit] | –
COc1ccc(Cc2nc(-c3ccncc3)no2)cc1 | 7.94 µM [rising, partial curve, poor fit] | –

Structure (SMILES) | AC50 [1] | AC50 [2]
CCOc1ccc(/C=N/N(C)c2ccccc2)cc1OC | 6.51 µM [rising, full curve, poor fit] | –
Cc1ccc(S(=O)(=O)C(CNS(=O)(=O)c2ccc(F)c(C(F)(F)F)c2)c2ccco2)cc1 (configuration not stated) | 0.282 µM [falling, full curve] | –
COc1ccc(N2C(=O)c3cc4ccccc4cc3C2=O)cc1 | 12.6 µM [rising, single point] | –
CC(=O)N(/N=C1\Sc2ccccc2C1=O)c1cccc(C)c1 | 1.58 µM [falling, full curve, poor fit] | –
COc1cc(C(=O)N/N=C/c2ccc(OC(=O)c3ccccc3Cl)cc2)ccc1O | 6.31 µM [falling, partial curve] | –
C=CCn1c(=O)c2c(nc3n2CCCN3Cc2ccccc2)n(C)c1=O | 3.98 µM [falling, single point] | –
O=C(Cc1ccccc1)Nc1ccc(N2CCOCC2)cc1 | 31.6 µM [rising, single point] | –
O=C(NCCc1ccccc1)c1cnc2ccccn2c1=O | 10 µM [falling, partial curve] | –
Cc1ccc(NS(=O)(=O)c2cccc(C(=O)NCC(c3ccc(F)cc3)N3CCOCC3)c2)cc1 (configuration not stated) | 29.1 µM [falling, single point] | –
CSc1ccc(/C=C/C(=O)c2ccc(NC(=O)C(C)C)cc2)cc1 | 35.5 µM [falling, single point] | –
O=C(CCc1nc2ccccc2c(=O)[nH]1)Nc1cccc(S(=O)(=O)N2CCCCC2)c1 | 13 µM [falling, partial curve, poor fit] | –
Cc1ccc(C(=O)NCC(=O)Nc2ccc(Cl)cc2)s1 | 6.51 µM [falling, single point] | –
O=[N+]([O-])c1ccc(Cl)c(S(=O)(=O)Nc2ccc(-c3ccc(N4CCOCC4)nn3)cc2)c1 | 32.6 µM [falling, partial curve, poor fit] | –
Cc1cc(=O)oc2cc(OCC(=O)Nc3c(Cl)cccc3C(F)(F)F)ccc12 | 4.47 µM [rising, single point] | –
CSc1ccccc1-c1nc(-c2ccncc2)no1 | 11.2 µM [falling, single point] | –
Cc1cccc(C(=O)OCC(=O)c2c(N)n(CC(C)C)c(=O)n(C)c2=O)c1O | 8.2 µM [rising, partial curve] | –
CC(C)COCc1ccc(O)c2ncccc12 | 28.2 µM [falling, single point] | 35.5 µM [falling, single point]
CCCn1c(NC(=O)c2ccc(C)cc2)nc2ccccc21 | 20.6 µM [rising, partial curve, poor fit] | –
O=C(CSc1ncn[nH]1)OCN1C(=O)c2ccccc2C1=O | 35.5 µM [rising, partial curve, poor fit] | –
Cc1occc1C(=O)Nc1ccc(Br)cc1F | 16.4 µM [falling, single point] | –
CCC(C)Nc1nc(CN2CCOCC2)nc2sc3c(c12)CCC3 (configuration not stated) | 8.2 µM [rising, partial curve, poor fit] | –
CCc1cc2cc(C(=O)Nc3ccccc3F)sc2s1 | 4.61 µM [falling, partial curve] | –

Two entries from above, as comma-separated lines:
Structure (SMILES),AC50 [1],AC50 [2]
Cc1cccc(C(=O)OCC(=O)c2c(N)n(CC(C)C)c(=O)n(C)c2=O)c1O,"8.2 µM [rising, partial curve]",–
CC(C)COCc1ccc(O)c2ncccc12,"28.2 µM [falling, single point]","35.5 µM [falling, single point]"

Continued.

Structure (SMILES) | AC50 [1] | AC50 [2]
Cc1ccc(S(=O)(=O)C(CNC(=O)C(=O)NCc2ccc(Cl)cc2)c2ccco2)cc1 (configuration not stated) | 4.47 µM [rising, partial curve, poor fit] | –
COc1ccc(OCC(=O)Nc2ccc3oc(=O)ccc3c2)cc1 | 5.62 µM [rising, partial curve, poor fit] | –
Fc1ccccc1-c1cc2ncccc2cn1 | 25.9 µM [falling, single point] | –
COc1cccc(NC(=S)Nc2ccc(Br)cc2Cl)c1 | 31.6 µM [rising, single point] | –
COc1ccc(C(CNC(=O)c2ccc(-c3ccccc3Cl)o2)N2CCOCC2)cc1 (configuration not stated) | 20.6 µM [falling, single point] | –
CCCC(C(=O)NCCC(C)C)N(Cc1ccc(OC)cc1)C(=O)c1snc(C(N)=O)c1N (configuration not stated) | 35.5 µM [falling, single point] | –
O=C(CCSc1nc(-c2ccc3c(c2)OCO3)cc(C(F)(F)F)n1)NCc1ccco1 | 1.64 µM [rising, partial curve, poor fit] | –
Oc1oc(-c2ccccc2Br)nc1/C=N/c1ccccn1 | 7.08 µM [falling, partial curve] | –
CC(NCc1ccccc1OC1CCCC1)c1ccccc1 (configuration not stated) | 22.4 µM [falling, single point] | –
CCN(C(=O)CCc1nc(-c2ccc(OC)cc2)no1)c1cc(OC)ccc1OC | 29.1 µM [falling, single point] | –
O=S(=O)(O)c1nc2ccccc2n1CCOc1ccccc1 | 17.8 µM [rising, single point] | –
COc1ccc(C(=O)Nc2ccc(S(=O)(=O)N3CCN(C)CC3)cc2)cc1[N+](=O)[O-] | 10 µM [rising, partial curve, poor fit] | –
Cc1ccc2nc3c(c(Nc4cccc(O)c4)c2c1)CCC3 | 10 µM [falling, partial curve, poor fit] | –
COc1ccccc1NS(=O)(=O)c1cc(NC(=O)c2[nH]c(C)c(C(C)=O)c2C)ccc1N1CCOCC1 | – | 6.31 µM [falling, partial curve, poor fit]
COC1CCCCC1Nc1ccc(C)c(C)c1 (configuration not stated) | 13 µM [rising, partial curve, poor fit] | –
CC(C)c1ccc(C(C)NCCS(=O)(=O)c2ccc(Cl)cc2)cc1 (configuration not stated) | 11.2 µM [falling, partial curve] | –
O=C(O)c1ccc2c(c1)C(=O)N(CCCCCCCN1C(=O)c3ccc(C(=O)O)cc3C1=O)C2=O | 15.8 µM [falling, partial curve, poor fit] | –
COc1cc(-c2c(C#N)c(N)nc(SCc3ccncc3)c2C#N)cc(OC)c1OC | 35.5 µM [falling, single point] | –
O=C(COc1ccc(Cl)cc1Cl)Nc1ccccn1 | 16.4 µM [falling, partial curve] | –
COc1cccc(NS(=O)(=O)c2cc3c(cc2C)N(C(C)=O)CCO3)c1 | 14.1 µM [rising, partial curve, poor fit] | –

Record cards, as listed above:
O=C(c1ccccc1)[C@@H]1[C@@H](C(=O)c2ccc(F)cc2)[C@@]2(C(=O)Nc3ccccc32)[C@H]2c3ccccc3C=CN12 in the list: AC50 [1]: 14.6 µM [falling, partial curve]; AC50 [2]: 18.4 µM [rising, partial curve, poor fit]
O=C(O)c1cccc(N/N=C/c2cccc3ccccc23)c1 in the list: AC50 [1]: 7.94 µM [falling, partial curve]
O=C(Nc1ccc(S(=O)(=O)Nc2ncccn2)cc1)c1ccco1 in the list: AC50 [1]: 20.6 µM [falling, single point]; AC50 [2]: 20.6 µM [rising, partial curve, poor fit]
